Experimental data published in PubChem BioAssay AID720518 (National Center for Advancing Translational Sciences (NCATS), 2013).
The inconclusive results got no clear call from the source; some entries with a clear call stand among them for comparison. Entries that show only a call come without a potency. Potencies beside an inconclusive call are fits to weak or partial responses and may not hold up. Active and inactive are the calls of the source. Calls follow the shape of the full dose curve.

test: qHTS for Inhibitors of Cell Surface uPA Generation: Wild-type Protective Antigen (WT-PrAg) Counterscreen for Cherry-picked Compounds; conditions: cells, WT protective antigen toxicity counterscreen; series mostly up to 115 µM
Potency is read from the fitted curve at half-maximal effect.

Compound	Potency
Cc1ccccc1C(=O)NCC(=O)Nc1ccc(C)c(S(=O)(=O)N2CCCCCC2)c1	inactive
COC(=O)[C@]1(Cc2ccccc2)N[C@H](CN(C)C(=O)Nc2ccc(F)cc2)[C@@H]2C(=O)N(Cc3ccccc3)C(=O)[C@@H]21	inconclusive: 10.4 µM [activator, full curve]
COc1ccccc1-c1ccc(SCC(=O)NCCc2ccccc2)nn1	inactive
CCn1c(CNc2ccc(F)cc2)nnc1SCC(=O)Nc1ccccc1OC	inactive
C=CC(=O)N1C/C(=C/c2ccccc2)C(=O)/C(=C\c2ccccc2)C1	inconclusive: 29.3 µM [activator, full curve]
O=C(c1cccc(F)c1)N1CCN(Cc2cccc(Br)c2)CC1	inactive

A second format for some results above.
Compound | Potency
CCn1c(CNc2ccc(F)cc2)nnc1SCC(=O)Nc1ccccc1OC | inactive
O=C(c1cccc(F)c1)N1CCN(Cc2cccc(Br)c2)CC1 | inactive
